In PubChem BioAssay AID2685 (National Center for Advancing Translational Sciences (NCATS), 2010):
This is one part of the list. Shown are side measurements of this screen, not its main read-out; they come without a call. Most of these compounds were active or inconclusive in the main read-out, so they are no random draw. The note in brackets gives the kind of curve behind each potency; many fits are weak.

Experiment: qHTS Assay for Lipid Storage Modulators in Drosophila S3 Cells;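 as to cell number change: cells counted by Cell Tracker Red CMTPX staining in the red channel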
Details: BODIPY lipid droplet fluorescence, 18-24 h; for cell number change: measured here: cell count max response, cells fed with added oleic acid
Summary of the method: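 Drosophila S3 cells got compounds at several concentrations plus oleic acid (400 uM solution). Laser-scanning cytometry with 488 nm excitation read lipid droplets at 500-530 nm and cells at 575-640 nm. Percent activity was relative to 20 uM Triacsin C.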

[1] = measured here: cell number channel AC50, cells fed with added oleic acid
[2] = measured here: lipid fluorescence (Fed channel) AC50, cells fed with added oleic acid

Compound	cell number change [%]	AC50 [1]	AC50 [2]
C[n+]1c(-c2ccccc2)c2cc(N)ccc2c2ccc(N)cc21	-15.2		
O=C(Oc1c(Cl)cc(Cl)c2ccccc12)N1CCCCC1		0.13 µM [falling, full curve, poor fit]	1.16 µM [falling, full curve]
O=C(Cn1ncc2c3ccccc3n(Cc3ccccc3F)c2c1=O)N1CCC2(CC1)OCCO2	-18		1.03 µM [rising, single point]
CCOc1ccc(C2SCC(=O)Nc3c2c(C)nn3C2CCOC(C)(C)C2)cc1 (stereo not given)	7.28		32.6 µM [falling, single point]
CN1C(=O)N(C)C(=O)C2(Cc3c(nc4ccccn4c3=O)N3CCc4ccccc4C32)C1=O (stereo not given)	1.43		0.00461 µM [rising, full curve, poor fit]
Clc1ccc(OCC#CCN2CCOCC2)cc1	-10		
C1=C(c2c[nH]c3ccccc23)CCN(Cc2ccccc2)C1	-40.1	7.31 µM [falling, partial curve]	5.8 µM [falling, full curve]
Clc1ccc(NC2=NCCCS2)cc1Cl	10.3		
COC(=O)C1=C(c2ccc(F)cc2OCc2ccccc2)C[C@@H]2CC[C@H]1N2C(=O)N1CCCC1			16.4 µM [falling, single point]
O=C(CN1CCN(C(=O)COc2cccc(F)c2)CC1)Nc1ccc(Cl)c(C(F)(F)F)c1	-31.7	29.1 µM [falling, single point]	
COC(=O)C1=C(c2ccc(OC(F)(F)F)cc2)C[C@@H]2CC[C@H]1N2C(=O)NCC1CC1	-17.2		0.146 µM [rising, single point]
CN[C@H]1C[C@H]2O[C@@](C)([C@H]1OC)n1c3ccccc3c3c4c(c5c6ccccc6n2c5c31)C(=O)NC4	-72.4	9.2 µM [falling, partial curve]	8.2 µM [falling, partial curve]
COc1ccc(N=C(C)c2c(O)n(C)c(=O)n(C)c2=O)c(OC)c1	-17.6		2.91 µM [falling, single point]
CNC(=S)N1CCn2cccc2C1c1cccnc1 (stereo not given)	11.6		
Cc1cccc(N2C(=O)NC(=O)/C(=C\C=C\c3ccco3)C2=O)c1	-60.9	14.6 µM [falling, partial curve]	20.6 µM [falling, single point]
CCOC(=O)C1(c2ccccc2)CCN(CCC(=O)Nc2cccc(Br)c2)CC1	-93.1	18.4 µM [falling, partial curve]	29.1 µM [falling, single point]
CCOc1cc(CNCCc2c[nH]c3ccccc23)cc(Cl)c1OC	-66.6	25.9 µM [falling, partial curve]	20.6 µM [falling, partial curve]
CC(C)CCNC(=O)c1c(N)n(Cc2ccc3c(c2)OCO3)c2nc3ccccc3nc12		5.8 µM [rising, partial curve, poor fit]	
CCOP(=O)(OCC)C(Nc1cccc([N+](=O)[O-])c1)c1ccc(OC)cc1 (stereo not given)		0.00411 µM [falling, full curve, poor fit]	
O=C(CNC(=O)OCc1ccccc1)Nc1ccc(Br)cc1C(=O)c1ccccc1			16.4 µM [falling, partial curve]

Reformatted in CSV form: entries from further up
Compound,cell number change [%],AC50 [1],AC50 [2]
Clc1ccc(OCC#CCN2CCOCC2)cc1,-10,,
CCOP(=O)(OCC)C(Nc1cccc([N+](=O)[O-])c1)c1ccc(OC)cc1 (stereo not given),,"0.00411 µM [falling, full curve, poor fit]",

Going on with the list.

Compound	cell number change [%]	AC50 [1]	AC50 [2]
O=C(CCc1nc(-c2ccccc2F)no1)N1CCC2(CC1)OCCO2	105	13 µM [rising, partial curve]	6.51 µM [rising, single point]
CCOC(=O)c1cc(C)sc1/N=C/C1C(=O)NC(=S)NC1=O	-21		
Cc1ccnc(-n2c(C)cc(C=C3C(=O)N(C)C(=S)N(C)C3=O)c2C)c1			4.61 µM [falling, full curve, poor fit]
COC(=O)C1=C(c2ccc(C(C)=O)cc2)C[C@@H]2CC[C@H]1N2C(=O)NCc1ccc2c(c1)OCO2	-12		0.517 µM [rising, full curve, poor fit]
COC(=O)C1=Nc2ccccc2/C1=C\c1c(O)n(-c2ccc(Br)cc2)c(=O)[nH]c1=O	1.84	0.146 µM [rising, full curve, poor fit]	
CCN(CC)P(=O)(c1n(CC)cc[n+]1CC)N(CC)CC	-19.7		11.6 µM [falling, partial curve]
CCOc1cc(C=C2C(=O)NC(=O)NC2=O)ccc1OCC(=O)N1CCOCC1	110	25.9 µM [rising, single point]	
O=c1[nH]c(=S)n(-c2ccccc2Cl)c(O)c1C=NCCN1CCNCC1	64.1	16.4 µM [rising, partial curve]	
CCCCCc1nc2c(c(=O)c3ccccc3n2C)c(=O)n1C1CCCCCC1	-33.7	18.4 µM [falling, single point]	25.9 µM [falling, single point]
CCOC(=O)C1(c2ccccc2)CCN(CC(=O)Nc2cccc3ccccc23)CC1	1.87	6.51 µM [rising, single point]	
Cc1ccc2c(c1)CCCN2N=O	3.22		18.4 µM [rising, partial curve]
O=c1[nH]c(O)c(C=Nc2ccc(Cl)c(C(F)(F)F)c2)c(=O)[nH]1	18.5	0.13 µM [rising, full curve, poor fit]	
COc1ccc(CCC(=O)N2C[C@H]3C[C@@H](C2)c2cccc(=O)n2C3)cc1	18.7		4.11 µM [rising, full curve, poor fit]
COc1ccc(-c2n(-c3ccccn3)c3ccccc3[n+]2-c2ccccn2)cc1	-4.6		5.8 µM [falling, partial curve, poor fit]
Nc1ccccc1N=Cc1c(O)n(CCC2=CCCCC2)c(=O)[nH]c1=O	-19.3		
Cc1cccc(NC(=O)CN2CCN(C(=O)COc3cccc(Br)c3)CC2)c1C	4.85		0.231 µM [rising, partial curve, poor fit]
COc1ccccc1NC(=O)Oc1ccc(C(C)=O)cc1		0.461 µM [falling, single point]	
Nc1cc(Cl)c2nonc2c1[N+](=O)[O-]	-74.4	6.51 µM [falling, partial curve]	4.61 µM [falling, full curve]
O=[N+]([O-])c1ccc(NC2CCCC2)c2ccncc12	38.8	14.6 µM [rising, partial curve, poor fit]	
Cc1ccc(CN2CCN(C)CC2)c(C)c1	-44.5	13 µM [falling, partial curve]	16.4 µM [falling, single point]

Sorted by molar mass (falling): some entries from above.
Compound	cell number change [%]	AC50 [1]	AC50 [2]
CC(C)CCNC(=O)c1c(N)n(Cc2ccc3c(c2)OCO3)c2nc3ccccc3nc12		5.8 µM [rising, partial curve, poor fit]	
C1=C(c2c[nH]c3ccccc23)CCN(Cc2ccccc2)C1	-40.1	7.31 µM [falling, partial curve]	5.8 µM [falling, full curve]
Cc1ccc(CN2CCN(C)CC2)c(C)c1	-44.5	13 µM [falling, partial curve]	16.4 µM [falling, single point]

(continued)

Compound	cell number change [%]	AC50 [1]	AC50 [2]
CN1CCc2cccc(Cl)c2CC1	-39.4	32.6 µM [falling, single point]	
COc1ccc(CNCCc2ccc3c(c2)OCO3)c(OC)c1OC	9.72		
COC(=O)C1=C(c2ccc(F)cc2F)C[C@@H]2CC[C@H]1N2C(=O)NC1CC1	0.12		5.8 µM [rising, partial curve]
COc1cc(C=C2C(=O)NC(=O)NC2=O)ccc1OS(=O)(=O)c1ccccc1[N+](=O)[O-]	-7.62		
C=CCn1c(O)c(C(C)=NC(C)c2ccccc2)c(=O)[nH]c1=O (stereo not given)	21.3		29.1 µM [rising, single point]
COCCNP(=O)(c1ccccc1)c1nc2ccccc2s1 (stereo not given)	18.4		
C[N+]1(C)[C@@H]2CC(OC(=O)[C@H](CO)c3ccccc3)C[C@H]1[C@@H]1O[C@@H]12 (stereo not given in full)	37.5	23.1 µM [rising, single point]	29.1 µM [falling, single point]
CCCCOP(=O)(OCCCC)C(Nc1ccc(C(=O)OCC)cc1)c1ccncc1 (stereo not given)		6.51 µM [falling, full curve, poor fit]	
CCCC[N+]12CCC(CC1)C(C(=O)c1cccs1)C2 (stereo not given)	-13.4		
CC(C)n1cc(C(=O)N(CC(=O)NC2CCCC2)Cc2ccccc2)cn1	-2.93		0.411 µM [falling, full curve, poor fit]
Cc1cc(=O)oc2cc(OCC(=O)N3C[C@H]4C[C@@H](C3)c3cccc(=O)n3C4)ccc12	6.15		2.59 µM [rising, partial curve, poor fit]
NP(=O)(OCCCc1ccccc1)Oc1ccccc1Cl (stereo not given)	18.3		
COc1ccccc1OCCn1c(=O)oc2ccc(C)cc21		11.6 µM [rising, partial curve, poor fit]	
O=[N+]([O-])c1ccc(-c2ccccc2)c([As](=O)(O)O)c1	-49.2	29.1 µM [falling, single point]	25.9 µM [falling, partial curve, poor fit]
COc1cccc(OP(=O)(Nc2ccccc2)Oc2cccc(OC)c2)c1	-12		1.46 µM [rising, single point]
CCCCCCn1c(O)c(C=NCCN2CCCCC2)c(=O)[nH]c1=O		0.0058 µM [falling, full curve, poor fit]	0.00461 µM [falling, full curve, poor fit]
O=C(c1ccco1)c1cn(Cc2ccc(Cl)cc2)c2ccccc12	-15.1		
COc1cccc(C2CCN(CC(=O)Nc3cc(Cl)ccc3OC)CC2O)c1 (stereo not given)	20.2	3.26 µM [rising, partial curve]	
O=C(COc1ccc(S(=O)(=O)N2CCOCC2)cc1)N1CCN(Cc2ccc3c(c2)OCO3)CC1	2.1		
CCC(=NCC1CCCO1)c1c(O)n(-c2ccccc2)c(=O)[nH]c1=O (stereo not given)	-9.73		5.8 µM [falling, partial curve]
